# Results are given in words; binding and its absence hold for the method and conditions named. In cells and extracts the contact can be indirect. Some binding calls cover weakened binding; strength is not graded here. Sequences can lack the tags named with a protein.
# T1: recombinant glutathione S-transferase (GST) NudE (UniProt Q9CZA6)
# T1 sequence: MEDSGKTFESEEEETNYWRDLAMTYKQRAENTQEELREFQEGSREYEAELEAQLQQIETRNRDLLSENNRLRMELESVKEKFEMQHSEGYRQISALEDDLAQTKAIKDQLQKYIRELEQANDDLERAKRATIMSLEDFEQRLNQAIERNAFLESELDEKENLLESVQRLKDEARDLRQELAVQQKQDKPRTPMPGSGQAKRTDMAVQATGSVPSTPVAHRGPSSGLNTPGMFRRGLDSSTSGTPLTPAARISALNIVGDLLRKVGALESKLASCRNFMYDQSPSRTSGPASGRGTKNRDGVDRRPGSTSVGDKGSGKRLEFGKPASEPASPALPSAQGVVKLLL
# B1: LIS1 (protein, UniProt P63005 1-410)
# chain: MVLSQRQRDELNRAIADYLRSNGYEEAYSVFKKEAELDMNEELDKKYAGLLEKKWTSVIRLQKKVMELESKLNEAKEEFTSGGPLGQKRDPKEWIPRPPEKYALSGHRSPVTRVIFHPVFSVMVSASEDATIKVWDYETGDFERTLKGHTDSVQDISFDHSGKLLASCSADMTIKLWDFQGFECIRTMHGHDHNVSSVAIMPNGDHIVSASRDKTIKMWEVQTGYCVKTFTGHREWVRMVRPNQDGTLIASCSNDQTVRVWVVATKECKAELREHEHVVECISWAPESSYSSISEATGSETKKSGKPGPFLLSGSRDKTIKMWDVSTGMCLMTLVGHDNWVRGVLFHSGGKFILSCADDKTLRVWDYKNKRCMKTLNAHEHFVTSLDFHKTAPYVVTGSVDQTVKVWECR
# Target: T1, recombinant glutathione S-transferase (GST) NudE
# Assay: pull-down; 1 ug/ul GST-NudE or GST-CC1 with glutathione agarose 4B and pre-cleared whole brain lysate of P0 wild-type or Loa/Loa mice; phosphate-glutamate buffer (10 mM sodium phosphate, 100 mM sodium glutamate, pH 7.0, 1 mM MgSO4, 1 mM EDTA, 1 mM DTT, 0.2% NP-40), 4°C, 2 hours; western blot of supernatants and pellets; only the target purified
binder,measurement,value
B1,binding,binds
